Results: patent US20250357519A1, “APPLICATIONS OF O2-INSENSITIVE FORMATE DEHYDROGENASE” (UNIVERSITY OF MARYLAND, BALTIMORE, priority 2022, published 2025)

Assays:
[1] = Phenazine ethosulfate (PES)/dichlorophenolindophenol (DCPIP) assay of formate oxidation by DvH-FDH2; assay type: biochemical, Desulfovibrio vulgaris Hildenborough; conditions: full progress curve; for Product stoichiometry: F, formate
From the text: FIG. 38. Experimental workflow for aerobic PES/DCPIP assay. Prepare cuvette (1), fill with reaction mix (2), add stirrer (3), initiate kinetics by the addition of DvH-FDH2 while the contents of the cuvette are being mixed (4), and continue data collection until completion (5). Blue arrows shown at the bottom in steps 4 and 5 denote stirring.
FIG. 39. Experimental workflow for anaerobic PES/DCPIP assay. Setup cuvette (1,2), add reaction mix (3), gas with argon (4), start the reaction by injecting DvH-FDH2 (5), and collect data until the reaction goes to completion (6). Blue arrows shown at the bottom in steps 4-6 represent stirring.
In this dye-linked assay, PES (Em,7=+65 mV) serves as the primary electron acceptor. Following its reduction by FDH2, PES nonenzymatically transfers electrons to a second dye, DCPIP, facilitating spectrophotometric detection.^91 Workflows are described in FIGS. 38 and 39. PES was chosen over PMS because of its long-term stability.^120 Furthermore, necessary precautions were taken in handling and preparing the reagents, including protecting the reagents from light.^187 DvH-FDH2 was assayed in 1 mM PES (Sigma-Aldrich P4544-1G)/93 μM DCPIP (98% pure; Acros 152870100) in 50 mM Tris pH 8.0. Reactions, 2.5 mL volume, were set up to the desired formate concentration and then started by addition of 10 μL of 400 nM FDH2 (1.6 nM final). Precipitation of reduced PES precluded used of higher concentrations of the electron acceptor. Therefore, 1 mM PES was used. Assays were performed using a UV-2600i spectrophotometer (Shimadzu Life Sciences) equipped with T2 Peltier/stirrer accessory (Quantum) and monitored at 600 nm. For aerobic measurements (FIG. 38), reactions were performed in open top styrene disposable cuvettes (Brand 75907D) with 6 mm×9 mm cuvette stirrer (Cowie 001.1609) spun at 400 rpm, and reactions started by addition of 10 μL of 400 nM FDH2 via micropipette. Some aerobic experiments were conducted using a Cary 300 UV-Vis spectrophotometer (Agilent) at a volume of 3.0 mL with api 9 mm×8 mm spin bar (Sigma Z363545) cuvette stirrer. For the anaerobic conditions (FIG. 39), reactions were set up under argon in screw cap quartz cuvettes (Starna 1-SOG-10_GL14-S) sealed with Suba-Seal 13 white rubber septa (Sigma Z167258). The stirrer was an 8 mm×3 mm pivot bar (VWR 37119-6183), stirring at 650 rpm. Reactions were started by addition of FDH2 via 10 μL Hamilton syringe (701N 80300) under an argon atmosphere.
For classical steady-state kinetics, initial velocities (guided by residual plots) were obtained using ICEKAT.^188 KinTek Explorer^84,89 (version 10.1.6, KinTek Corporation) was used to perform global fitting of enzyme kinetics data to Schemes 1 and S1. This is based on numerical integration of rate equations. Confidence contour analysis was carried out to assess whether the parameters were properly constrained by the data.

[2] = Benzyl viologen (BV) assay of formate oxidation by DvH-FDH2; assay type: biochemical, Desulfovibrio vulgaris Hildenborough; conditions: full progress curve, 2 mM BV (anaerobic)

B1: DvH-FDH2 (protein)
chain 1: MRMPRRTFIKLASASAGALAFAGLGQSLAPTVARAAELKIAKAKVTPSVCCFCAVGCGLLVYTDTQTGRSINIEGDPDHPTNEGTLCPKGASIWQTTERSKRVTKVLYRAPGAAAWEEKSWDWALPRIARKIKETRDATFELTNDKGQTVNRTRGIASVGSAAVDNEEGWLMQAMMRALGLVYIESHARIUHSSTVGALAESYGRGAMTNHWIDLKNSDVILIMGSNAAENHPISFKWVTRAQERGATLIHVDPRFTRTSAKADIHAHIRSGTDIAFFGGLIRYIMENDLFFRQYVVDYTNASYIVGADYGFADGLFTGFDAEKGTYNTKKWAFAADENGMTLKDPTLNDPRCVFQLMKAHYARYDRKTVSDVTGISEEQLATLWSTFASTGKPDRAGTILYAMGQCQHTVGVQNIRALSMIQLLLGNIGIAGGGVNALRGESNVQGTTDISLLCDNLSGYLPTPKASWATFDDYVKGTTPVDKDPKSANWWSNRGKYLASYMKSVYPTASHQDGYLWHPKVDDGKITDYSWLQIFERMSKGGFKGAFVWGQNPCAGGANAGKNRKAMETLDWMVVVNLFENESSLFWKGPGVDPAKVKTEVFFLPACMSVEKGGSIANSGRWLQWREPGPKPMGDSRSDGDIVLDLYDEIRKLYREEKGAFPEPVLALDTDYRTDGKYDHHKVAKTLNGKFLTDVTIGDKTYKAGQQVPGFAMLQADGSTTSGCWIFTGCYTDAGNMMARRDRTQTPEQAAIGLFPNWSYAWPANRRILYNRAAVDMTGKPFDPKRAVIAWNGEKWVGDVPDGGWKPGEKLPFIMIREGRGQLFGPGRVDGPFPEHYEPFESPLESHPFSKQRVNPTALAFSHEPKAVRDKRYPFICTTYRVTEQWQSGTMTRNTGWLKEMQPEGFCEISRELAKELGIANGDAVVLESLRGKVQVVAIVTPRLKPFKVMGEVMHEVGIPWQFGWGQHVGKGDSANLLSPSVGDPNTGIPETKVFMVNLRKA
chain 2: MRPLGSLPQGMRRVSRRHIREAYMNGKTFFIDQTRCTACRGCQAACKQWKKFGSIETRNTGSYQNPPDLGPSTFKLVRFNEVEVDGKLKWLFFPEQCRHCLEPPCKMVADALIPGAIVQDAETGAVLYTEKTKGLDYMEVRSACPYDIPRQDPATGLLTKCNMCIDRVQNGMLPACVKTCPTGTMHFGDRADMLELAQKRLGEVKKRSPAALLADSDLVRVLYLCELAPANYHSHMVAEADTSRIGPFSRRALLRLRPFA
modifications: non-natural residues; left off: small tags and cut ends
[1]; DCPIP (air)
  Enzyme inactivation: No
  Product inhibition: No
  Product stoichiometry: 1DCPIP:1F
[1]; DCPIP (anaerobic)
  Enzyme inactivation: No
  Product inhibition: No
  Product stoichiometry: 1DCPIP:1F
[2]
  Enzyme inactivation: No
  Product inhibition: No
[2]; F, formate
  Product stoichiometry: 2BV^+: 1F
